# Results taken from paper PMC12040169 (PLOS Biology, 2025).
# The other results are listed elsewhere or left out.
# System: T1, CTL2-GFP (C. trachomatis L2/434/Bu, GFP-expressing)
# T1 construct: L2/434/Bu, GFP-expressing
# Design: species or system HeLa; Intracellular C. trachomatis growth in HeLa cells, bulk GFP fluorescence relative to DMSO
# Conditions: bulk GFP, single well; 28.5 h, 10 µM; inhibitor
row,Compound,% of control remaining [%]
1,CC(CC(=O)O)CC(=O)Nc1cccc(C(=O)O)c1 (stereo not shown) [CBK265651],103.791
2,CCOc1cc(C)c(Cl)cc1S(=O)(=O)NCc1ccncc1 [CBK269954],115.658
3,CCc1ccc(N(CC(=O)NCc2ccccn2)S(C)(=O)=O)cc1 [CBK265322],100
4,Cc1cnn(C)c1CN1CCNC(=O)C1c1ccccc1C(F)(F)F (stereo not shown) [CBK304260],130.126
5,c1coc(-c2cn3ccnc3c(Nc3ccc4[nH]ccc4c3)n2)c1 [CBK037361],173.83
6,Cc1cc(-c2ccc(=O)n(C3CCN(C(=O)C4CC4)CC3)n2)c(C)o1 [CBK284462],134.061
7,CC1CCN(Cc2ccc(-c3nnn(CC(=O)NCc4ccc(Cl)cc4Cl)n3)cc2)CC1 [CBK144180C],100.711
8,O=C(Nc1ccc2n(c1=O)C[C@H]1C[C@@H]2CN(C(=O)NC2CCCCC2)C1)c1cnccn1 [CBK289076],111.696
9,CCCc1c(C)nc2c(OC)cccc2c1SCCC(=O)O [CBK263890],86.2645
10,N#Cc1ccc(COc2ccccc2)cc1 [CBK002738],121.293
11,O=S(=O)(c1ccc(Cl)cc1)N1CCN(c2ccccc2)CC1 [CBK067987],117.338
12,CCNC(=S)/N=C(\NCc1cccnc1)Nc1nc(C)cc(C)n1 [CBK267212],89.1603
13,N#Cc1ccc(C2NC(=O)c3ccccc3O2)cc1 (stereo not shown) [CBK288180],118.125
14,Cn1c2ccccc2n2c(SCc3nc4ccc([N+](=O)[O-])cc4[nH]3)nnc12 [CBK266853],158.409
15,CC(C)(C)C(=O)CN1CCC2(CC1)OCCc1c2[nH]c2ccc(F)cc12 [CBK040237],112.752
16,Cc1cc2c(cc1C)C(O)CC1(CCN(C(=O)c3ccco3)CC1)O2 (stereo not shown) [CBK282839],126.375
17,NC(=O)CCN1CCC(Cc2ccccc2)CC1 [CBK138317],151.829
18,NC(=O)CN1CCC2(CC1)CN(CC(N)=O)c1ccccc12 [CBK126789],82.999
19,CNC(=O)c1cccc(NS(=O)(=O)c2sc3ccc(Cl)cc3c2C)c1 [CBK160383],125.599
20,COc1cc(CNCc2cccs2)cc(Cl)c1OCC(N)=O [CBK270237C],139.351
21,CCn1c(SCC(=O)Nc2ccc(C(C)=O)cc2)nnc1-c1cc(Br)ccc1O [CBK268515],162.966
22,O=C(O)CSc1nnc(-c2ccco2)n1-c1ccccc1 [CBK131685],118.367
23,CC1CCN(c2ccc(C(=O)CCCO)cc2)CC1 [CBK010358],116.098
24,O=C(NCCCc1ccccc1Cl)c1ccc(=O)n(CC(=O)N2CCCCC2)c1 [CBK286078],113.4
25,CCNC(=O)Nc1cc2cccnc2nc1-c1cc(F)cc(F)c1 [CBK070638],111.33
26,CC(=O)Nc1ccc(S(=O)(=O)N2CCN(S(=O)(=O)c3ccccc3[N+](=O)[O-])CC2)cc1 [CBK264314],122.27
27,Nc1ncc(-c2cc3ccccc3o2)nc1-c1ccc(C=O)cc1 [CBK064126],169.914

row,Compound,% of control remaining [%]
1,O=[N+]([O-])c1cccc(NS(=O)(=O)c2ccc(Cl)c(Cl)c2)c1 [CBK044396],102.522
2,CN(C)CCN1C(=O)C(O)=C(C(=O)c2ccc(S(=O)(=O)N3CCOCC3)cc2)C1c1ccc(F)cc1 (stereo not shown) [CBK264683],100
3,CCN1CCN(C(=O)CN(Cc2ccc(Cl)cc2)S(C)(=O)=O)CC1 [CBK269263],154.804
4,Brc1ccc(-c2nc(NCCCN3CCOCC3)cc(-c3ccccc3)n2)cc1 [CBK261712],102.495
5,Cc1ccc(-n2cnnn2)c(S(=O)(=O)N2CCOCC2)c1 [CBK268297],114.749
6,CCOC(=O)C1(C2CCCCC2)CCN(C(=O)CC2NC(=O)NC2=O)CC1 (stereo not shown) [CBK136938],107.537
7,O=[N+]([O-])c1ccc(CN2CCN(c3nccnc3OCCN3CCOCC3)CC2)cc1 [CBK082892T],146.222
8,O=C(O)CCCSCC(=O)Nc1ccccc1 [CBK276905],150.937
9,O=C(CSc1nnc(SCc2cccc3ccccc23)s1)c1ccc(F)cc1 [CBK266218],111.644
10,Cn1c2ccccc2c2cc(/C=C(/NC(=O)c3ccccc3)C(=O)Nc3cccc(O)c3)ccc21 [CBK261449],100
11,CC1CN(Cc2c(C(F)(F)F)[nH]c3ncccc23)CC(C)O1 (stereo not shown) [CBK285344],119.441
12,CCOc1ccccc1NC(=O)NC(=O)C1CCN(CCCc2ccc3c(c2)OCO3)CC1 [CBK034924],171.078
13,Nc1cccc2c1C(=O)N(c1ccccc1C(=O)O)C2=O [CBK287220],120.143
14,COc1ccc(C(=O)c2c[nH]c3ccccc23)cc1 [CBK111451],133.64
15,O=c1n(Cc2ccccc2F)nc2nnc(-c3ccccc3)c(-c3ccccc3)n12 [CBK286179],135.356
16,CCN(CCO)c1ccc(Nc2cc(-c3ccsc3)ncn2)cc1 [CBK091000],123.825
17,O=C(NCC1(N2CCOCC2)CCCCC1)c1ccccc1C(=O)c1ccc(F)cc1 [CBK297938],122.756
18,CCn1c(C)nnc1SCC(=O)Nc1cc(C(F)(F)F)ccc1Cl [CBK304382],126.923
19,O=C(O)c1cc(-n2c(S)nnc2-c2cnccn2)ccc1Cl [CBK269285],146.934
20,Cc1nc(CN2CCC(Cc3ccccc3)CC2)cs1 [CBK126438],75.9846
21,CCOC(=O)N1CCN(C(=O)COc2cccc3ccccc23)CC1 [CBK262992],116.784
22,O=C(O)c1ccc(CSc2nnc(Cc3ccccc3)[nH]2)o1 [CBK269208],158.904
23,Cc1ccc(C(=O)N2CCN(Cc3ccccc3)CC2)cn1 [CBK200170],120.286
24,COc1ccc([C@@]23CC[C@@H](NC(=O)Nc4cc(C)c(C)cc4[N+](=O)[O-])C[C@@H]2N(C)CC3)cc1OC [CBK036478T],117.086
25,CNC1CCCCCC1(O)c1ccccc1 (stereo not shown) [CBK005073],99.208
26,O=C(Cc1cccs1)N1CCC(c2nnc3n2CCCCC3)CC1 [CBK284606],152.593
27,O=C(O)c1ccc(Nc2nc3ccccc3nc2NS(=O)(=O)c2ccc(Cl)cc2)cc1 [CBK296072],134.997

# Reformatted as tab-separated lines: entries from further up
row	Compound	% of control remaining [%]
20	Cc1nc(CN2CCC(Cc3ccccc3)CC2)cs1 [CBK126438]	75.9846
21	CCOC(=O)N1CCN(C(=O)COc2cccc3ccccc23)CC1 [CBK262992]	116.784
22	O=C(O)c1ccc(CSc2nnc(Cc3ccccc3)[nH]2)o1 [CBK269208]	158.904

# Carrying on.

row,Compound,% of control remaining [%]
1,CCc1nn(CC(=O)NC(C)(C)C)c(=O)c2cc3ccsc3n12 [CBK284183],101.701
2,O=C(CSc1nc(-c2ccccc2)cc(-c2ccccc2)n1)Nc1cccc([N+](=O)[O-])c1 [CBK263896],131.668
3,CCNC(=O)Nc1ncc(-c2ccsc2)c2cccnc12 [CBK070686],77.1284
4,CCC(c1c(O)c2ccccc2oc1=O)c1cccc2ccccc12 (stereo not shown) [CBK016684],86.1328
5,O=C(O)c1[nH]c2ccccc2c1C(c1ccsc1)c1c(C(=O)O)[nH]c2ccccc12 [CBK267811],12.6515
6,c1ccc(-c2c(-c3ccccc3)n(Cc3ccco3)c3ncn4nc(-c5ccncc5)nc4c23)cc1 [CBK265298],100
7,COc1cc(/C=N/Nc2nc(-c3ccccc3)cc(-c3ccc(OC)c(OC)c3)n2)ccc1O [CBK262841],40.8745
8,O=[N+]([O-])c1ccccc1OCCNCc1ccccc1 [CBK265511G],110.82
9,CCOC(=O)CNS(=O)(=O)c1cccs1 [CBK044958],189.431
10,CCOC(=O)N1CCC(NC(=O)N2CCN(CCc3ccccc3)CC2)CC1 [CBK158938],139.119
11,C[C@H](Nc1cncc(-c2cccc(N(C)C)c2)n1)c1ccccc1 [CBK065699],88.744
12,CC(CN1CCCCC1)OC(=O)COc1ccc(Br)cc1 (stereo not shown) [CBK265326C],117.249
13,O=C(Cn1c(NCCCO)nc2ccccc21)c1cccs1 [CBK023894B],78.5494
14,Nc1cc(N)nc(SCC(=O)Nc2ccc(Oc3ccccc3)cc2)n1 [CBK266749],115.011
15,COc1ccc(-n2c(=O)c3ccccc3n(CC(=O)NC3CCCC3)c2=O)cc1 [CBK287574],149.762
16,O=C(c1cccs1)N1CC(n2nc(-c3cccs3)ccc2=O)C1 [CBK283347],82.4478
17,CC(C)(C)c1ccccc1NC(=O)N(CCCN)Cc1cc(F)cc(F)c1 [CBK034697C],138.158
18,C[C@@H](Cn1nnc2ccccc21)NC(=O)Cc1cccc(F)c1 [CBK282306],132.312
19,CCC1(CC)C(=O)N=C(C(C)(C)C)NC1=O [CBK076759],136.897
20,O=C(O)c1ccccc1-c1ccccc1C(=O)NCCCO [CBK267197],165.244
21,Cc1csc2c(C3CCCN(C(=O)c4ccccn4)C3)nc(C)n12 (stereo not shown) [CBK284594],132.776
22,Cc1sc2nc(NCCO)[nH]c(=O)c2c1C [CBK018257],104.405
23,CCNc1cc2ccccc2c(-c2ccc(OC)c(C)c2)n1 [CBK089644],131.427
24,Cc1ccc(CN(CCCn2ccnc2)Cc2cnn(C)c2)s1 [CBK283113],114.613
25,O=C(COc1ccc(S(=O)(=O)N2CCCCC2)cc1)Nc1ccc2c(c1)OCCO2 [CBK268205],99.8053
